# Laboratory results published in US20250144177A1 (Katholieke Universiteit Leuven, priority 2022, published 2025).
# Not every detail of the peptide structures is certain; ends, links or a residue may be inferred. No end group written: not given here.
# Tests used:
# [1] = system: LPS-induced acute lung inflammation; experiment: LPS-induced acute lung inflammation: leukocytes, cytokines, chemokines and protein in BALF; assay type: in vivo, C57BL/6J mice; settings: LPS 25 μg/mouse; 100 μg/100 μL i.v. 6 hours after LPS; 24 hours after LPS; vs vehicle
# [2] = system: LPS-induced acute lung inflammation; experiment: Lung function after LPS instillation (forced spirometry); assay type: in vivo, C57BL/6J mice; settings: LPS 25 μg/mouse; 100 μg/100 μL i.v. 6 hours after LPS; 24 hours after LPS; vs vehicle
# Klebsiella pneumoniae = experiment: Lung function after pneumonia induced by Klebsiella pneumoniae; assay type: in vivo, C57BL/6J mice; settings: K. pneumoniae 1×10^6 CFU/mouse; 100 μg/100 μL i.v. 6 hours after infection; 24 hours after challenge; vs vehicle
# S. aureus = S. aureus lung infection in mice: BALF cells, clinical score, lung function; assay type: in vivo, C57BL/6 mice; settings: S. aureus 10^8 CFU/mouse intranasal; 100 μl at 1 mg/ml i.v. 6 h or 12 h after challenge; 24 hours
# neutrophil migration = settings: systemic treatment; murine models of joint inflammation and liver damage; cited from earlier work
sequence,measurement,setting,value
KKKQKNGKKHQKKKVLKVRKSQRSRQKKTT [CXCL9 (74-103)],levels of CXCL1 in BAL fluid,[1],no differences
same,levels of CXCL2 in BALF,[1],decreased
same,levels of CXCL6 in BAL fluid,[1],no differences
same,levels of IL-1β in BALF,[1],decreased
same,number of neutrophils recruited to the airways (BALF),[1],decrease
same,number of total leukocytes recruited to the airways (BALF),[1],decrease
same,recruitment of mononuclear cells (BALF),[1],did not affect
same,total protein concentrations in BAL fluid,[1],no differences
same,Tidal volume,[2],not able to improve significantly
same,dynamic compliance,[2],not able to improve significantly
same,expiratory volume at 20 milliseconds (FEV20),[2],improved
same,lung resistance,[2],improved
same,minute volume,[2],not able to improve significantly
same,dynamic compliance,Klebsiella pneumoniae,improved
same,expiratory volume at 20 milliseconds (FEV20),Klebsiella pneumoniae,did not affect
same,lung resistance,Klebsiella pneumoniae,improved
same,minute volume,Klebsiella pneumoniae,improved
same,"lung function (Lung Resistance, Dynamic Compliance)",S. aureus,Improves
same,neutrophil migration,neutrophil migration,successfully inhibits
